Measurements reported in article PMC13529201.
Results are given in words; binding and its absence hold for the method and conditions named. Binding seen in cells or lysates may run through a third protein. Some binding calls cover weakened binding; strength is not graded here.

Target: T1, ABCF2, endogenous in A549 cells (human (endogenous in A549)) (UniProt Q9UG63)
T1 sequence: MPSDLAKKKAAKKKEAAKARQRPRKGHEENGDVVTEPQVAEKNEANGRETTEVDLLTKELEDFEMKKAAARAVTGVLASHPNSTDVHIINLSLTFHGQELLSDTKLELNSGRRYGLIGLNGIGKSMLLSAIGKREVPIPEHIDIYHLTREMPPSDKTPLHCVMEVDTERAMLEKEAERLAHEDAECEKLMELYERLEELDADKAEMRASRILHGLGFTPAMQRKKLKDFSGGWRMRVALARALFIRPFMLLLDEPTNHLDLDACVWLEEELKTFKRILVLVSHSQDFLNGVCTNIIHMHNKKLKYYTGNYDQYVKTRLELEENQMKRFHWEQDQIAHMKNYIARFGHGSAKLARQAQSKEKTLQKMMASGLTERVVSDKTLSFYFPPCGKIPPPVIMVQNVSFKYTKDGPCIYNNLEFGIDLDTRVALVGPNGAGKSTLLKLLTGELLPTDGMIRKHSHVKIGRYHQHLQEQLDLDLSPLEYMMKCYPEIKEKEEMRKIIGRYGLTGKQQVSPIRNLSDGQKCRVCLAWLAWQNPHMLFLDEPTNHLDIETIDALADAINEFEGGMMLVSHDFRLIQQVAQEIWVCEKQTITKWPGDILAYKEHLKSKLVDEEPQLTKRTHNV
Assay: co-IP

Q: With “p53, endogenous in A549 cells (from UniProt P04637 1-393)” as the substance, how does the binding read?
A: binds
